In experiment [1] the target is Mxi2 as a hemaglutinin epitope-tagged fusion (Mxi2-HA), expressed in 293 cells (UniProt Q16539). The experiment in a line: co-immunoprecipitation from 293 cells with anti-Omi polyclonal antibody, anti-HA blot.
The target is the same in experiment [2]. Put plainly: co-immunoprecipitation from 293 cells with anti-Omi antibodies; phospho-specific antibody blot.

These are yes or no findings as the source states them, for the method shown. In cells and extracts the contact can be indirect. Some entries that bind do so weakly or less than the wild type.

B1: endogenous Omi protein precipitated from 293 cells with the anti-Omi polyclonal antibody (enzyme)
chain: MFFNYFAYMAQCTPLFAFTVFHLIWGCNNNFFHDYDVFFLPFTVFNGLVNGLEGNSIPSPRKEFSACAIGCKVYITGGRGAGWSLRAWRALGGIRWGRRPRLTPDLRALLTSGTSDPRARVTYGTPSLWARLSVGVTEPRACLTSGTPGPRAQLTAVTPDTRTREASENSGTRSRAWLAVALGAGGAVLLLLWGGGRGPPAVLAAVPSPPPASPRSQYNFIADVVEKTAPAVVYIEILDRHPFLGREVPISNGSGFVVAADGLIVTNAHVVADRRRVRVRLLSGDTYEAVVTAVDPVADIATLRIQTKEPLPTLPLGRSADVRQGEFVVAMGSPFALQNTITSGIVSSAQRPARDLGLPQTNVEYIQTDAAIDFGNSGGPLVNLDGEVIGVNTMKVTAGISFAIPSDRLREFLHRGEKKNSSSGISGSQRRYIGVMMLTLSPSILAELQLREPSFPDVQHGVLIHKVILGSPAHRAGLRPGDVILAIGEQMVQNAEDVYEAVRTQSQLAVQIRRGRETLTLYVTPEVTE
For B1, the binding result in experiment [1] and in experiment [2] was “binds” each time.

These data come from patent US20030157685A1.
